The results in this text go back to publication PMC8066055.

For this experiment, the target named is T1, JMJ29 fused to the C-terminal half of EYFP (Arabidopsis thaliana) (UniProt C0SV12).
T1 sequence: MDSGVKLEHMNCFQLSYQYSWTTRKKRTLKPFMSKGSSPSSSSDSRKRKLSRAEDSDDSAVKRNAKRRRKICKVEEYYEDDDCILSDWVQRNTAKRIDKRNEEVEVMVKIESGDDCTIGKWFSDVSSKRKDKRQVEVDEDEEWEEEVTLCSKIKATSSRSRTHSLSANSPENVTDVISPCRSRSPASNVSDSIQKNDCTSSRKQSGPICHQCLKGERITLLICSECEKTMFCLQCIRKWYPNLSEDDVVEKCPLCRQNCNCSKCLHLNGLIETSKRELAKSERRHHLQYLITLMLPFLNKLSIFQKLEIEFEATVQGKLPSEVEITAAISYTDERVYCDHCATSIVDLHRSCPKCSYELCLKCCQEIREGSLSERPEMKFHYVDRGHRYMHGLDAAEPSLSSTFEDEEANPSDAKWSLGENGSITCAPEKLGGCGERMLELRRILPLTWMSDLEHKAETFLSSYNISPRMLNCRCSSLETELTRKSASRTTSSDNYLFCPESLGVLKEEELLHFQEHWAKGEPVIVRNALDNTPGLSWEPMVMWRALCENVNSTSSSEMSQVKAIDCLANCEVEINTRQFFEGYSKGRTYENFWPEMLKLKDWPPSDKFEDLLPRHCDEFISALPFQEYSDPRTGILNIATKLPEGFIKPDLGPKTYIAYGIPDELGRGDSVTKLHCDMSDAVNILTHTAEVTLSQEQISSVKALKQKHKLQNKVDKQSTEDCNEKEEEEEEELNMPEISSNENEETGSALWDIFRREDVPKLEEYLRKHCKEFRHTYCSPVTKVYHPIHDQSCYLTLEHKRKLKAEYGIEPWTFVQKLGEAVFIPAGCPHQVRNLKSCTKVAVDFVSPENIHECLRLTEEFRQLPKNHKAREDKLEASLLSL
As to the kind of experiment: split reporter; BiFC; nEYFP and cEYFP fusions co-transfected into Arabidopsis protoplasts with mCherry-NLS nuclear marker; observed after 14 h by confocal imaging.

These are yes or no findings as the source states them, for the method shown. Binding seen in cells or lysates may run through a third protein. Some binding calls cover weakened binding; strength is not graded here. Where a sequence is shown, tags or fusion partners need not be part of it.

B1: LUX fused to the N-terminal half of EYFP (protein, UniProt Q9SNB4 1-323)
chain: MGEEVQMSDYDVSGDGDRVSEWEMGLPSDEDLASLSYSLIPPNLAMAFSITPERSRTIQDVNRASETTLSSLRGGSSGPNTSSSNNNVEEEDRVGSSSPGSDSKKQKTSNGDGDDGGGVDPDSAMAAEEGDSGTEDLSGKTLKRPRLVWTPQLHKRFVDVVAHLGIKNAVPKTIMQLMNVEGLTRENVASHLQKYRLYLKRMQGLTNEGPSASDKLFSSTPVPPQSFQDIGGGGGSSGNVGVPIPGAYGTQQMMQMPVYAHHMGMQGYHHQNHNHDPYHQNHRHHHGAGGNGAFESNPYMMQQNKFGSMASYPSVGGGSANEN
On to B1, for which the binding result is “binds”.
